From paper PMC12040169 (PLOS Biology, 2025) come the findings set out here.

The list shows a part of the results.

The assay relates to T1, CTL2-GFP (C. trachomatis L2/434/Bu, GFP-expressing).
T1 construct: L2/434/Bu, GFP-expressing
Details: species or system HeLa; Intracellular C. trachomatis growth in HeLa cells, bulk GFP fluorescence relative to DMSO. The conditions noted are these: bulk GFP, single well; 28.5 h, 10 µM; inhibitor.
Take `CCCC(=O)NC[C@H]1CC[C@H](c2ccnc3cc(C)nn32)CC1` [CBK283474]: the “% of control remaining” value amounted to 140.659%.
Then `COc1ccc(CCNC(=O)c2n[nH]c(=O)c3ccccc23)cc1OC` [CBK270160], with 136.076%.
The same measure for `COc1ccc2c(c1)CCC1(C)C2=C(C(=O)O)CC1O` (stereo not drawn) [CBK022814]: 145.703%.
The same measure for `Brc1c(OCc2ccccc2)ccc2[nH]ccc12` [CBK160845]: 153.132%; for `CC(C)[C@H](CO)Nc1nc(-c2cccc(OC(F)(F)F)c2)cnc1N` [CBK063957]: 188.632%.
For the compound `CC(NC(=O)c1ccc(=O)n(C)n1)c1ccc2c(c1)CCCC2` (stereo not drawn) [CBK281416], the “% of control remaining” value was found to be 134.872%.
Then `CCc1noc(C)c1C(=O)NCCN(C)C` [CBK268118], with 123.163%; and `C=CCn1c(NCc2ccccc2NS(=O)(=O)c2ccc(C)cc2)nc2ccccc21` [CBK266393], with 176.687%; and `CN1C[C@@H](NS(C)(=O)=O)C[C@H]1c1nc(-c2ccc3ccccc3c2)no1` [CBK288859], with 119.137%.
For `O=C(NCCn1nc(-c2ccco2)ccc1=O)C1CCCCC1` [CBK283743], the “% of control remaining” value is 105.747%.
On to `c1ccc(-c2cnc(C3CCCCC3)o2)cc1` [CBK008192], for which the “% of control remaining” value is 116.737%.
Consider `OC(c1cccs1)C1CCN(Cc2ccc(-n3cncn3)cc2)CC1` (stereo not drawn) [CBK306523], for which the “% of control remaining” value came to 108.794%.
The same measure for `CCN1CCCC1CNC(=O)c1ccc(C)nc1NCCCn1ccnc1` (stereo not drawn) [CBK076382]: 100%.
For `CCCCSc1nnc2c(n1)OC(/C=C/c1ccc([N+](=O)[O-])o1)Nc1ccccc1-2` (stereo not drawn) [CBK262565], the “% of control remaining” value came out at 56.4429%.
The same measure for `Cc1cccnc1C(c1ccc(F)cc1)N(C)C(=O)C1CCN(C(=O)OCc2ccccc2)CC1` (stereo not drawn) [CBK060095]: 143.508%.
Then `Cc1noc([C@@H]2C[C@H](NS(=O)(=O)c3ccc(C#N)cc3)CN2C)n1` [CBK288874], with 139.968%; and `CSCCN1CCCC2(CCN(C(=O)c3ccoc3)C2)C1` (stereo not drawn) [CBK132835], with 88.4929%; and `COc1ccc([N+](=O)[O-])c(Sc2cccs2)n1` [CBK002625], with 144.799%.
Then `O=C1CC(Cl)Sc2sc3ccccc3c21` (stereo not drawn) [CBK006551], with 117.107%; and `COc1cc(-c2cnc(N)c(N3CCC[C@@H]3CO)n2)cc(OC)c1OC` [CBK063478], with 74.1177%; and `COc1ccc(-c2cc(=O)[nH]c(SCC(=O)Nc3ccc(C)cc3)n2)cc1` [CBK091867], with 113.509%.
With `CC(=O)Nc1ccc(S(=O)(=O)Nc2cccc(-c3cn4cccnc4n3)c2)cc1` [CBK269125], the “% of control remaining” value stood at 122.447%.
Then `Cc1nn(C)cc1CN(Cc1ccc(F)cc1)CC1CCCO1` (stereo not drawn) [CBK282472], with 135.256%; and `Clc1ccc(OCCOc2nccnc2N2CCNCC2)cn1` [CBK014049G], with 104.812%; and `COc1ccc([C@@]23CC[C@@H](NC(=O)c4ccc(-c5csnn5)cc4)C[C@@H]2N(C)CC3)cc1OC` [CBK074256T], with 121.979%.
For the compound `Cc1ccc(COC(CN2CCCCCC2)CN2CCCCCC2)cc1` [CBK278236C], the “% of control remaining” value is 112.952%.
The same measure for `COc1cccc2c3c([nH]c12)C1(CCN(CCc2scnc2C)CC1)NCC3` [CBK040058]: 94.3012%; for `Cn1cc(C(=O)N2CCCC(c3cc4ccccc4cn3)C2)cn1` (stereo not drawn) [CBK285155]: 73.698%; for `O=C(CCSc1ccc(Cl)cc1)NCCc1ccccc1` [CBK263800]: 122.206%.
Then `Nc1ccccc1C(=O)NCc1ccncc1` [CBK057024], with 163.885%; and `O=[N+]([O-])c1ccccc1OCCCn1c2ccccc2c2ccccc21` [CBK264799], with 96.7015%; and `CNC(=S)Nc1ncn(Cc2cccc(F)c2)n1` [CBK288368], with 95.2319%.
With `COc1ccc2[nH]cc(CCNC(=O)/C=C/c3ccc(C(C)C)cc3)c2c1` [CBK149639], the “% of control remaining” value was 68.7452%.
On to `Cc1ccc(C(=O)N2CCC(c3nn(C)c4ncccc34)CC2)s1` [CBK284988], for which the “% of control remaining” value is given as 91.6227%.
The same measure for `COCc1nc(C(=O)Nc2ccc(NC(C)=O)cc2C(F)(F)F)cs1` [CBK306298]: 96.3531%; for `CCCc1oc(C(=O)O)cc1CN(CC)CC` [CBK267943C]: 122.347%; for `O=C(NCc1ccccc1)c1ccc(NCc2ccccc2)c([N+](=O)[O-])c1` [CBK074547]: 69.2906%.
The same measure for `O=C(CCc1ccc(F)cc1)N1CCC(CC(=O)N2CCN(c3ccccc3)CC2)CC1` [CBK286245]: 102.805%; for `O=C(N[C@H]1CCN2C(=O)c3cc(-c4ccsc4)ccc3NC(=O)[C@H]12)c1cccc(F)c1` [CBK289339]: 122.783%.
Then `CC(C)(C)c1ccc(-c2nnc(SCC(=O)c3ccc(F)cc3)o2)cc1` [CBK067988], with 100%; and `CCC(CC)(CC(=O)Nc1ccc2nc(C)sc2c1)C(=O)O` [CBK297882], with 106.439%.
`NS(=O)(=O)c1ccc(CNC(=O)c2cc(-c3cccnc3)nc3ccc(Cl)cc23)cc1` [CBK267727]: the “% of control remaining” value came out at 138.606%.
Then `CCNc1cc2ccccc2c(-c2cc(C(C)C)ccc2OC)n1` [CBK073777], with 84.5732%; and `C[C@H](NC(=O)Cc1ccc(-c2ccccc2)cc1)c1nc2ccccc2[nH]1` [CBK296998], with 107.845%; and `CCC1CCCCN1CC(=O)N1CCCC1c1nc2ccccc2[nH]1` (stereo not drawn) [CBK282695], with 109.129%.
Then `CCc1nc2ccc(C(=O)N(C)CCN(C)C)cn2c1N(C)Cc1nccs1` [CBK145474], with 168.754%.
The same measure for `CCN(CC)C(=O)CN1CCC(Oc2nccnc2OC2CCCCC2)CC1` [CBK082866T]: 137.76%; for `CC1CCC(C(N)=O)CN1c1cc(Br)ccn1` (stereo not drawn) [CBK304856]: 107.381%.
On to `COc1ccc([C@@]23CC[C@@H](NC(=O)Nc4c(F)ccc(F)c4Cl)C[C@@H]2N(C)CC3)cc1OC` [CBK073769T], for which the “% of control remaining” value worked out at 121.019%.
With `CCc1ocnc1C(=O)NC1CCCN(Cc2ccccc2F)C1` (stereo not drawn) [CBK306924], the “% of control remaining” value is 106.005%.
On to `Cc1ccccc1Nc1nc(CN2CCC3(CCCOC3)C2)cs1` (stereo not drawn) [CBK304255], for which the “% of control remaining” value worked out at 92.2978%.
As to `CSc1nnc(-c2ccccc2[N+](=O)[O-])n1CC(C)C` [CBK074959], the “% of control remaining” value came out at 108.009%.
Consider `Cc1cccc(-c2noc([C@@H]3Cc4[nH]cnc4CN3C(=O)NC(C)C)n2)c1` [CBK288962], for which the “% of control remaining” value stood at 95.0939%.
Turning to `O=C1c2ccccc2S(=O)(=O)N1CC(O)Cn1c2ccc(Cl)cc2c2cc(Cl)ccc21` (stereo not drawn) [CBK262327], the “% of control remaining” value was 103.222%.
The same measure for `Cc1cccc(CN(CCCN)C(=O)Nc2ccc(C(C)(C)C)cc2)n1` [CBK033365C]: 86.7132%.
The same measure for `Cc1ccc(C)c(-n2nnnc2SC(C)C(=O)N2CCCC2)c1` (stereo not drawn) [CBK295204]: 150.761%; for `O=C(c1nc2ncccn2n1)N1CCc2ccccc2C1` [CBK288079]: 137.424%.
Then `Nc1ccc(S(=O)(=O)c2ccc(-n3c(=O)c4cc5c(=O)n(-c6ccc(S(=O)(=O)c7ccc(N)cc7)cc6)c(=O)c5cc4c3=O)cc2)cc1` [CBK261490], with 100%.
Take `COc1ccc(CCCC(=O)n2c(=O)n(CCc3c[nH]c4ccccc34)c3ccccc32)cc1` [CBK106514]: the “% of control remaining” value was 136.235%.
Then `Cc1nc2c(c(=O)[nH]1)CN(Cc1ccccc1F)CC2` [CBK283948], with 146.649%.
Then `Cc1cc(C)c2nc(-c3ccccn3)cc(C(=O)Nc3ccc(S(=O)(=O)Nc4cc(C)on4)cc3)c2c1` [CBK267779], with 111.945%; and `CN(C)CCCn1cnc2c1c(=O)[nH]c(=O)n2C` [CBK287913], with 107.682%; and `CC1CN(C(=O)c2ccccc2)CC(C)N1CCCCc1ccc(F)cc1` (stereo not drawn) [CBK025019C], with 132.064%.
Regarding `COc1ccc(-c2nnc3ccc(SCc4ccccn4)nn23)cc1OC` [CBK287528], the “% of control remaining” value turned out to be 144.733%.
The same measure for `CCOC(=O)c1ccccc1NS(=O)(=O)Cc1ccccc1[N+](=O)[O-]` [CBK050594]: 88.9703%.
The same measure for `CN(C)Cc1ncccc1OCCO` [CBK001411C]: 118.169%.
`COc1cc(OC)c(NC(=O)C(C)Oc2cccc(C)c2)cc1Cl` (stereo not drawn) [CBK268646]: the “% of control remaining” value was determined as 119.426%.
Then `COc1cc(CNC2CCCCC2)ccc1OCC(N)=O` [CBK263866], with 100%; and `Cc1ccc(-c2nnc([C@H]3CCN(C(=O)NCc4ccccc4)C3)o2)cc1` [CBK289411], with 126.232%.
The same measure for `O=c1oc2ccccc2c(NCCCN2CCOCC2)c1[N+](=O)[O-]` [CBK261471]: 101.228%; for `CCCc1cc(C(=O)N2CCN(c3nccc(OC)n3)CC2)[nH]n1` [CBK304898]: 48.3913%.
The same measure for `COCOc1ccc(-c2nccnc2OC2CCCCC2)cc1` [CBK106917]: 122.253%; for `O=C(Nc1ccc(F)cc1)c1cccc(NS(=O)(=O)c2cc(Cl)sc2Cl)c1` [CBK038980]: 89.332%.
Take `Cc1cnc2[nH]c(C3CCCN(C(=O)c4cccnc4)C3)cc2c1` (stereo not drawn) [CBK285168]: the “% of control remaining” value was found to be 106.681%.
Then `Cc1c(C(=O)Nc2ccncc2)nnn1-c1cccc(C(F)(F)F)c1` [CBK107390], with 68.0774%.
Then `O=C(Nc1cc(Br)ccc1O)c1cnn2c(C(F)(F)F)cc(-c3cccs3)nc12` [CBK268190], with 106.388%; and `COc1ccc([C@@]23CC[C@@H](NC(=O)c4ccc(F)c(F)c4)C[C@@H]2CN(C)C3)cc1OC` [CBK083504T], with 139.449%.
Then `O=C1N=C(Nc2cccc(C(=O)O)c2)S/C1=C/c1cccc(O)c1` [CBK264984], with 129.639%.
